In PubChem BioAssay AID493014 (National Center for Advancing Translational Sciences (NCATS), 2011):
Some of the results follow. Further columns of the screen follow, without active or inactive calls. The list favours compounds with an active or inconclusive main result. Words in brackets tell the shape of the fitted curve; partial curves, single points and poor fits give uncertain potencies.

Assay: qHTS Assay to Find Inhibitors of Chronic Active B-Cell Receptor Signaling
Settings: ABC-DLBCL IkBa-CBG/CBR reporter, luminescence ratio (green luciferase fused to IkBa over red control in TMD8 lymphoma cells), 4 h
Method in brief: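 TMD8 human ABC-DLBCL cells with doxycycline-inducible IκBα–green luciferase fusion and unfused red luciferase, in 0.5% FBS medium; compounds up to 46 uM, 4 h at 37C. Green/red luminescence ratio, filter-overlap corrected, fitted to concentration-response curves.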

[1] = measured here: CBR red luminescence, cell number
[2] = measured here: IkBa-CBG green luminescence

| Structure (SMILES) | AC50 [1] | AC50 [2] |
| --- | --- | --- |
| c1ccc([C@H]2CN3C(=N2)Sc2ccccc23)cc1 | 16.4 µM [falling, single point] |  |
| CCc1ccc(/C=N/NC(=O)c2c[nH]c3ccccc23)s1 | 16.4 µM [falling, single point] |  |
| CCOc1ccc(NC(=S)c2ccncc2)cc1 | 29.1 µM [rising, single point] |  |
| O=C(/C=C/c1ccco1)N1CCc2ccccc21 | 15.8 µM [falling, single point] |  |
| O=C(CSc1ncnc2sc3c(c12)CCCC3)N1CCC(c2noc3ccc(F)cc23)CC1 | 2.06 µM [falling, single point] |  |
| CC1(C)Cc2c(sc3c2c(=N)n(Cc2ccco2)c(=O)n3CC(=O)Nc2cccc(Cl)c2)CO1 | 7.94 µM [falling, partial curve, poor fit] |  |
| COc1ccc(CC(=O)Nc2nnc(C(C)C)s2)cc1OC | 22.4 µM [rising, single point] |  |
| CCOc1cc(-c2c(C)c(CC)nc(N)c2C#N)ccc1O | 7.08 µM [falling, partial curve, poor fit] |  |
| Cc1cc(N/N=C/c2ccc(O)cc2)c2cccc(C)c2n1 | 35.5 µM [falling, single point] |  |
| N#C/C(=C\c1ccc(O)c(O)c1)C(=O)NCCCc1ccccc1 | 8.91 µM [falling, partial curve] |  |
| NNC(=O)c1cccn(Cc2cccc(C(F)(F)F)c2)c1=O | 1.58 µM [falling, partial curve, poor fit] |  |
| Cc1ccc(SCc2[nH]nc3c2C2(CCSCC2)C(C#N)=C(N)O3)cc1 | 2.31 µM [falling, partial curve, poor fit] |  |
| Cc1ccc(NC(=O)c2cc3ccccc3o2)cc1Cl | 7.94 µM [falling, partial curve] |  |
| NC(=O)c1ccc(-c2nnn(CC(=O)N(C3CCCCC3)C3CCS(=O)(=O)C3)n2)cc1 (stereo unspecified) | 16.4 µM [falling, partial curve, poor fit] |  |
| Cc1cc(/C=C2\C(=O)NN(c3ccccc3)C2=O)c(C)n1-c1ccccc1O | 12.6 µM [falling, partial curve] |  |
| COc1ccc(S(=O)(=O)N2CCC(C(=O)OCC(=O)c3ccccc3)CC2)cc1[N+](=O)[O-] | 2.31 µM [rising, partial curve, poor fit] |  |
| CCN(C(=O)COC(=O)/C=C/c1ccc(F)cc1)C1CCCCC1 | 6.51 µM [rising, partial curve, poor fit] |  |
| Cc1ccc(NC(=O)c2ccccc2)cc1 | 11.2 µM [falling, partial curve, poor fit] |  |
| O=C(NN=Cc1ccccc1OC(F)F)c1cccc(S(=O)(=O)N2CCCC2)c1 | 16.4 µM [falling, partial curve, poor fit] |  |
| Cn1cc(C(=O)c2ccc(Cl)cc2)cc1-c1nc2ccccc2n1C | 35.5 µM [falling, single point] |  |
| Cc1ccccc1OCC(=O)N/N=C/c1sc(=O)n(Cc2cccc(C(=O)O)c2)c1Cl | 35.5 µM [falling, single point] |  |
| CCn1c(CNC(=O)c2ccccc2Cl)cc2ccccc21 | 10 µM [rising, partial curve, poor fit] |  |

| Structure (SMILES) | AC50 [1] | AC50 [2] |
| --- | --- | --- |
| CC(C)(C)CN1C(N)=NC[C@H]1Cc1ccc(O)cc1 | 35.5 µM [rising, single point] |  |
| CCOC(=O)C1=C(COC(=O)CCNS(=O)(=O)c2ccc(C)c(C)c2)NC(=O)NC1C (stereo unspecified) | 16.4 µM [rising, partial curve, poor fit] |  |
| C(=N\Nc1nc2ccccc2s1)/c1ccccn1 | 8.91 µM [falling, partial curve] | 2.82 µM [falling, full curve, poor fit] |
| C/C(=N/NC(=O)c1cccs1)c1cccs1 | 14.1 µM [falling, single point] |  |
| N=c1c2ccccc2nnn1-c1cccc(C(F)(F)F)c1 | 3.16 µM [rising, partial curve] |  |
| CCCOC(=O)C1=C(C)NC2=C(C(=O)C(C(=O)OC)C(C)C2)C1c1ccc(N(CC)CC)cc1 (stereo unspecified) | 29.1 µM [rising, single point] |  |
| CCOC(=O)c1c(-c2ccccc2)c2cc(OC)ccc2n1CCCN(C)C | 12.6 µM [falling, partial curve] |  |
| CCOC(=O)c1c(-c2ccc(OC)cc2)cn2ccccc12 | 17.8 µM [falling, single point] |  |
| Cc1ccc(CN(C)C(=O)c2cccc(S(=O)(=O)N3CCc4ccccc43)c2)cc1 | 18.4 µM [falling, single point] |  |
| NNC(=O)c1cccc(Cn2cc(Br)c([N+](=O)[O-])n2)c1 | 10 µM [falling, partial curve, poor fit] |  |
| CCCCOC(=O)C1Cc2ccccc2C(=O)O1 (stereo unspecified) | 18.4 µM [rising, single point] |  |
| COc1c(S(=O)(=O)N2CCCC2)ccc(Cl)c1Cl | 23.1 µM [rising, partial curve, poor fit] |  |
| Cc1cccc(OCC(=O)Nc2ccccc2F)c1 | 8.91 µM [falling, partial curve, poor fit] |  |
| O=C(O)C1CC=CCC1C(=O)Nc1ccc2c(c1)OCCO2 (stereo unspecified) |  | 20.6 µM [rising, partial curve, poor fit] |
| CCCc1cc(=O)oc2c3c(c4c(c12)OC(C)(C)C=C4)OC(C)C(C)C3O (stereo unspecified) | 35.5 µM [falling, single point] |  |
| CCOc1ccc(NC(=O)N2CCC(c3nc4ccccc4[nH]3)CC2)cc1 | 2.82 µM [rising, full curve, poor fit] |  |
| CCOc1ccc(S(=O)(=O)NCCC(=O)OCC(=O)Nc2cc(C)on2)cc1 | 7.94 µM [rising, partial curve] |  |
| CC(=O)N1c2ccc(F)c(F)c2C[C@H]1C | 0.231 µM [falling, full curve] |  |
| Cc1ccc(-c2cn3cc([N+](=O)[O-])ccc3n2)cc1 | 29.1 µM [falling, single point] |  |
| COc1ccc(S(=O)(=O)c2c(N)n(Cc3ccco3)c3nc4ccccc4nc23)cc1 | 11.2 µM [falling, partial curve] |  |
| COc1cc(-c2nc3ccc4ccccc4c3c3c2CCC3)cc(OC)c1OC | 11.2 µM [falling, partial curve] |  |
| CCN(CC)CCNc1ncnc2c1sc1nc(N3CCOCC3)c3c(c12)CC(C)(C)SC3 | 7.08 µM [rising, full curve, poor fit] |  |

An excerpt from above in order of SMILES length, rising.

| Structure (SMILES) | AC50 [1] | AC50 [2] |
| --- | --- | --- |
| CCOc1ccc(NC(=S)c2ccncc2)cc1 | 29.1 µM [rising, single point] |  |
| O=C(/C=C/c1ccco1)N1CCc2ccccc21 | 15.8 µM [falling, single point] |  |
| Cc1ccc(NC(=O)c2cc3ccccc3o2)cc1Cl | 7.94 µM [falling, partial curve] |  |
| COc1ccc(CC(=O)Nc2nnc(C(C)C)s2)cc1OC | 22.4 µM [rising, single point] |  |
| CCOC(=O)c1c(-c2ccc(OC)cc2)cn2ccccc12 | 17.8 µM [falling, single point] |  |
| NNC(=O)c1cccn(Cc2cccc(C(F)(F)F)c2)c1=O | 1.58 µM [falling, partial curve, poor fit] |  |
| NNC(=O)c1cccc(Cn2cc(Br)c([N+](=O)[O-])n2)c1 | 10 µM [falling, partial curve, poor fit] |  |
| CCOc1ccc(NC(=O)N2CCC(c3nc4ccccc4[nH]3)CC2)cc1 | 2.82 µM [rising, full curve, poor fit] |  |
| CCCc1cc(=O)oc2c3c(c4c(c12)OC(C)(C)C=C4)OC(C)C(C)C3O (stereo unspecified) | 35.5 µM [falling, single point] |  |
| COc1ccc(S(=O)(=O)c2c(N)n(Cc3ccco3)c3nc4ccccc4nc23)cc1 | 11.2 µM [falling, partial curve] |  |
| O=C(CSc1ncnc2sc3c(c12)CCCC3)N1CCC(c2noc3ccc(F)cc23)CC1 | 2.06 µM [falling, single point] |  |
| COc1ccc(S(=O)(=O)N2CCC(C(=O)OCC(=O)c3ccccc3)CC2)cc1[N+](=O)[O-] | 2.31 µM [rising, partial curve, poor fit] |  |

Additional results follow.

| Structure (SMILES) | AC50 [1] | AC50 [2] |
| --- | --- | --- |
| COc1ccc2[nH]c3ccccc3c2c1 | 2.82 µM [rising, partial curve, poor fit] |  |
| CCCCNC(=O)c1cn(CC)c2cc(N3CCN(C)CC3)c(F)cc2c1=O | 35.5 µM [rising, single point] |  |
| O=C(COc1ccc2c(-c3ccccc3)cc(=O)oc2c1)NCC(O)c1ccccc1 (stereo unspecified) | 2.82 µM [falling, single point] |  |
| CC1=CC(=O)O[C@@H]1[C@@]1(C)C[C@H]2OC(=O)C[C@H]3[C@@H](C)C(=O)C(O)=C1[C@@]23CO | 29.1 µM [falling, single point] |  |
| Fc1cccc(Cl)c1CSc1nnc(CNc2ccccc2)o1 | 8.91 µM [rising, partial curve, poor fit] |  |
| O=C(COc1ccc(Cl)cc1Cl)NC(=S)N1CCCc2ccccc21 | 18.4 µM [rising, single point] |  |
| Cc1[nH]nc2c1C1(CCN(Cc3ccccc3)CC1)C(C#N)=C(N)O2 | 0.146 µM [falling, full curve, poor fit] |  |
| O=C(NN1C(=O)C2C(C1=O)C1C=CC2C12CC2)c1ccccc1 (stereo unspecified) | 6.31 µM [rising, single point] |  |
| CCOC(=O)c1ccc(NC(=O)c2c(NC(=O)CCC(=O)O)sc3c2CCCCC3)cc1 | 14.1 µM [falling, single point] |  |
| Cc1ccc(C)c(-c2csc(N)c2C(=O)OC(C)C)c1 | 20.6 µM [rising, single point] |  |
| Cc1ccc(NC(=O)c2c(C)oc3ncn(C)c(=O)c23)cc1F | 2.24 µM [falling, full curve] |  |
| O=C(CC1SC(=O)N(c2ccccc2)C1=O)Nc1ccc(Br)cc1 (stereo unspecified) | 25.1 µM [falling, single point] |  |
| Cc1nnc(-c2cnn(C)c2N)n1Cc1ccccc1F | 6.51 µM [falling, single point] |  |
| CC[C@]12c3[nH]c4cc(CCC(=O)N(C)C)ccc4c3CCN1C(=O)[C@@H](CC(=O)NCCCN(C)C)C[C@@H]2C(=O)N1CCN(C(=O)c2ccco2)CC1 | 18.4 µM [rising, partial curve] | 14.6 µM [falling, partial curve] |
| COC(=O)c1cc(S(=O)(=O)Nc2nn(C)c3cccc(F)c23)oc1C | 20 µM [rising, single point] |  |
| Cc1ccc(NC2=C(N3CCOCC3)C(=O)c3ccccc3C2=O)cc1 | 0.82 µM [falling, full curve, poor fit] |  |
| COc1ccccc1NC(=O)N1CCCC1C(=O)Nc1ccc(NC(C)=O)cc1 (stereo unspecified) | 14.1 µM [rising, single point] |  |
| CC(Nc1ccccc1)C(=O)Nc1ccc(F)cc1 (stereo unspecified) | 10.3 µM [rising, partial curve] |  |
| CC(=O)Nc1cccc(NC(=O)c2cc3ccccc3o2)c1 | 3.98 µM [falling, partial curve] |  |
| Nc1nc(-c2ccccc2)cn1N | 1.58 µM [falling, full curve, poor fit] |  |
